PubChem BioAssay AID1259308 – NCATS | 2017
The whole screen tested about 59,000 reagents; this is a part drawn at random. About 1,510 of all reagents (2.6%) count as active. 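Calls use total luciferase alone and ignore viability, so some active siRNAs may act by altering cell number.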 The numbers tell different reagents against one gene apart. Reagent sequences are not shown.

Purpose: 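Candidate targets for better recombinant protein yield in mammalian cells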 (primary screen)
System: human HEK293 embryonic kidney cells stably expressing firefly luciferase (HEK-CMV-Luc2-Hygro)
Reagents: single siRNA against human genes, 0.8 pmol siRNA per well
Time to read-out: 72 h
Read-out: 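Luciferase light (ONE-Glo) measured on one replicate plate set and viability (CellTiter-Glo) on the other, scaled to a negative control siRNA, with robust z-scores and luciferase per cell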
Reading the numbers: total luciferase, z-score and total luciferase, % of control: higher = more reporter protein produced; luciferase per cell, z-score: higher = more reporter output per viable cell; viable cells, % of control: higher = more viable cells
Rule for the call: 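An siRNA counts as active if its total luciferase robust z-score exceeds 3; genes with two or more such siRNAs out of three were retested with fresh siRNAs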
Calls: active = raised luciferase; inactive = no rise

gene	reagent	total luciferase, z-score	total luciferase, % of control	luciferase per cell, z-score	viable cells, % of control	outcome
ZNG1A	1	2.22	126	1.32	99.5	inactive
ZNG1A	2	0.0584	83	0.0759	91	inactive
ZNG1A	3	0.39	89.6	0.31	92.3	inactive
LOC732226 (retired record)	1	0.751	96.8	0.706	89.8	inactive
LOC732226 (retired record)	2	2.75	137	2.49	79.3	inactive
LOC732226 (retired record)	3	-0.321	75.5	-0.149	87.7	inactive
TP53BP1	1	0.976	101	-0.0603	115	inactive
TP53BP1	2	1.55	113	1.16	92.7	inactive
TP53BP1	3	0.93	100	0.672	94	inactive
CABP5	1	-0.202	77.9	-0.0237	87.6	inactive
CABP5	2	0.121	84.3	-0.074	96	inactive
CABP5	3	-0.0672	80.6	-0.288	97.1	inactive
TRPC7	1	1.26	107	1.05	90.6	inactive
TRPC7	2	-0.59	70.1	-0.35	86	inactive
TRPC7	3	-1.06	60.8	-1.38	97.7	inactive
TSPEAR	1	1.85	119	1.21	96.2	inactive
TSPEAR	2	-0.257	76.8	0.171	82	inactive
TSPEAR	3	-0.205	77.8	-0.384	96.2	inactive
PRKX	1	-1.72	47.6	-0.99	69.1	inactive
PRKX	2	-0.537	71.2	-0.815	98.6	inactive
PRKX	3	-0.288	76.2	-0.0526	86.3	inactive
RPL35A	1	-2.69	28.4	-0.84	39.6	inactive
RPL35A	2	-2.6	30.2	-0.97	43.5	inactive
RPL35A	3	2.07	123	1.43	94.3	inactive
ZNF699	1	0.177	85.4	0.927	74.8	inactive
ZNF699	2	0.463	91.1	0.1	99.1	inactive
ZNF699	3	-1.22	57.7	-0.686	77.3	inactive
STARD7	1	0.747	96.7	0.201	103	inactive
STARD7	2	1.2	106	0.845	94.6	inactive
STARD7	3	-0.578	70.4	-0.742	95.6	inactive
GRIK4	1	2.72	136	1.21	110	inactive
GRIK4	2	-0.937	63.3	-0.816	87.6	inactive
GRIK4	3	-0.596	70	-0.958	101	inactive
MLPH	1	1.78	117	3.17	56.9	inactive
MLPH	2	0.126	84.4	-0.424	105	inactive
MLPH	3	-1.55	51.1	-1.17	77.9	inactive
GNLY	1	0.42	90.2	-0.459	114	inactive
GNLY	2	1.35	109	0.598	104	inactive
GNLY	3	0.85	98.8	1.72	70.2	inactive

4 consecutive reagents already listed, for reference:
gene	reagent	total luciferase, z-score	total luciferase, % of control	luciferase per cell, z-score	viable cells, % of control	outcome
RPL35A	2	-2.6	30.2	-0.97	43.5	inactive
RPL35A	3	2.07	123	1.43	94.3	inactive
ZNF699	1	0.177	85.4	0.927	74.8	inactive
ZNF699	2	0.463	91.1	0.1	99.1	inactive
